# According to the supplement of paper PMC3334620:
# In all, about 33,000 sequences were measured (“E-score (-0.5 to 0.5)”: median about -0.0034, highest 2% from about 0.25 on). This is one part of the list.
# Target: T1, Yap3 (UniProt P38749)
# T1 sequence: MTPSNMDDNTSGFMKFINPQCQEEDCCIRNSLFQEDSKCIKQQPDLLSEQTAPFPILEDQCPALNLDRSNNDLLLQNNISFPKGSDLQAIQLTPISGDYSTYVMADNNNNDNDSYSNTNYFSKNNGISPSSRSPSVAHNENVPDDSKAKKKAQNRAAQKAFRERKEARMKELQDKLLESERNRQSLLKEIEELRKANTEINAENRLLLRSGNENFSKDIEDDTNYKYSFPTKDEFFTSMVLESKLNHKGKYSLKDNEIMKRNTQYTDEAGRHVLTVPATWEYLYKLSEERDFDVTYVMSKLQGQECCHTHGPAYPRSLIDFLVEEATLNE
# Assay: PBM E-score (8-mer binding enrichment) (E-score (-0.5 to 0.5)); higher = stronger / more preferred TF binding
# Settings: protein concentration: 100 nM; construct: GST-full length
# Procedure, shortened: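 The E-score, a modified Wilcoxon-Mann-Whitney statistic, was computed by the Universal PBM Analysis Suite for every ungapped eight-base word pooled with its reverse complement. Scans behind it were normalised with masliner after bound GST-tagged yeast transcription factors were detected with fluorescent anti-GST. The proteins, at about 100-200 nM, had been applied to universal all-10-mer Agilent arrays made double-stranded by primer extension.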
row,Sequence,PBM E-score
1,CAGTGTTA,0.225
2,AACAGGCG,-0.272
3,GCGTGGCA,-0.117
4,GAAGGACA,-0.0391
5,ACAGCGTA,-0.0717
6,ACTCTACG,-0.13
7,AAATGTAA,0.227
8,AGTTTCTC,0.0391
9,GGCCTGAA,-0.204
10,CAATCAAC,0.217
11,ACTTGTCG,0.0841
12,GGAAACCA,-0.0449
13,CTACAAAG,0.0143
14,CATGTCCA,0.0196
15,GTCGCGCA,0.0573
16,CTACCCAA,0.135
17,ATACCCCG,-0.135
18,CATTCAGC,0.00584
19,AAGGGCAA,-0.0346
20,AGTGACAG,0.0684
21,GATCAGAA,-0.0906
22,ATTATTGG,0.0681
23,CCTAGATC,-0.019
24,GCTAAAGC,-0.102
25,GCGAGCCA,-0.0927

row,Sequence,PBM E-score
1,CAGATCGG,-0.0324
2,CGTACAGC,-0.0576
3,ACTCTGCA,0.0724
4,AACCCATC,-0.11
5,ACCATTTC,0.112
6,CCCGTAAG,-0.0857
7,CCTCTTTA,-0.0595
8,GTAGTGTA,0.0151
9,ATGGACAT,0.0428
10,ATGCACTA,0.0636
11,GTTATTCA,0.193
12,CAAAATAC,0.207
13,CCAATTGA,0.0344
14,GCCCTCCC,-0.247
15,AGCGATAT,0.175
16,ATCACCTG,-0.00859
17,GACCCAAA,0.0385
18,TAAGTGAA,0.253
19,GGCAAGAC,-0.124
20,CGCCACCC,-0.125
21,ACCTCAAC,0.0764
22,CCATCAGA,-0.167
23,CAAAGAAC,0.12
24,GTATAGAA,0.132
25,CTGACGTA,0.0592

row,Sequence,PBM E-score
1,CTCGGTGA,-0.0423
2,AGGATCAC,0.0487
3,CCCTCAAG,-0.116
4,CTAGCGTC,-0.219
5,ACTGTATA,0.103
6,AGTGATCG,-0.0298
7,ATGAACGG,-0.0682
8,CGGTTCAG,-0.272
9,GGGTGAGA,-0.174
10,CAGAAATG,0.0761
11,ACAGCCCC,-0.2
12,GAGAGATA,0.175
13,CCTACAAG,-0.195
14,ATGATAGA,0.0408
15,CGACTCTA,-0.101
16,ACCAAACA,0.22
17,CCCTGACC,-0.167
18,CACCACAG,-0.0737
19,CCAGAAGA,-0.0758
20,CCTTTCAA,0.0643
21,ACGCGATG,0.0166
22,CTCCCGAC,-0.17
23,AAGGCTTC,-0.00648
24,GCGCAGAC,-0.123
25,CACCTATC,0.0783

row,Sequence,PBM E-score
1,TCGGTTCA,-0.121
2,CTACCGGA,-0.168
3,GGACAGTA,0.182
4,CTGCTTTA,0.251
5,CACCTGAA,0.136
6,ACAGTAAT,0.234
7,TAAAATAA,0.0792
8,CGGACTTC,-0.19
9,GCTCGACC,-0.0732
10,AACGAGCG,0.0751
11,AAGTCGCG,0.146
12,ATTCTGCG,0.0918
13,GATGCTCA,-0.109
14,AATCTGGC,-0.179
15,GTCGACGA,-0.00621
16,CCCTGGTA,-0.275
17,ATCTGTAC,0.206
18,CATGAAAC,0.103
19,ACGGCGAA,0.0811
20,TACGTCCA,-0.0718
21,GGAGTGGA,-0.0979
22,CAACCTAA,0.0685
23,GAAAGGCA,0.049
24,CTGGTGCC,-0.256
25,CATTAAGG,0.0235

row,Sequence,PBM E-score
1,CGACACCG,-0.143
2,AGCTATGG,-0.145
3,AAATAACT,0.206
4,ATACCATA,0.241
5,CGTTGAGC,-0.0636
6,ACGCCCGT,0.115
7,TGGACGAA,0.0693
8,AGACAGCT,-0.154
9,AGTTAATA,0.264
10,AGGGTGAT,-0.0385
11,CGAATCGC,-0.0763
12,GCACCCGC,-0.139
13,CTCACCGC,-0.165
14,ACTGCACT,0.0255
15,CGCAAAAC,0.146
16,ATAGGTAA,0.0418
17,ACGCCTTC,-0.134
18,AGACCTCT,-0.201
19,CATGACCG,-0.199
20,CTTGAGAC,-0.104
21,CACGAATG,0.102
22,ATGCCCAT,-0.11
23,ACTGCACA,-0.00455
24,CATCGTCG,-0.156
25,ATCCCCGG,-0.223

row,Sequence,PBM E-score
1,CTCTTAAG,-0.104
2,AGTCGCCA,-0.253
3,CTTTGAGC,-0.209
4,CGAAGACC,0.00252
5,TCCTTCCA,-0.111
6,CATTATTC,0.185
7,ATCCTGCG,-0.201
8,ACACAAGG,-0.0193
9,ATAGGTCG,-0.00638
10,GGGAAGAA,-0.0383
11,CTTCTGAC,-0.155
12,CAAGCGCA,0.235
13,CCATAGGC,-0.207
14,ACGAGCTG,0.0939
15,TGCTCCAA,0.0755
16,ACATGAAC,0.0169
17,ATCACAGG,-0.151
18,CCCAGTCG,-0.112
19,ATGCTACG,0.0849
20,AAACGTAC,0.0703
21,GTATTCAC,0.113
22,TCTCGTAA,0.228
23,CCGTGCTA,-0.142
24,ACTCAGCC,-0.139
25,AATTTCTG,0.089

# 6 records drawn at random from the list so far, as already listed:
row,Sequence,PBM E-score
19,ATGCTACG,0.0849
23,CCGTGCTA,-0.142
24,ACTCAGCC,-0.139
11,CTTCTGAC,-0.155
20,AAACGTAC,0.0703
1,CTCTTAAG,-0.104

# Remaining list, next part.

row,Sequence,PBM E-score
1,GAGCATAA,0.178
2,AAATTTAA,0.217
3,GTTCTGCA,0.0206
4,ATACGTAG,0.0583
5,ATGACAAT,0.196
6,CTCATAAC,0.0114
7,TCGCTACA,-0.242
8,ATGAATGC,0.0737
9,ACCGGCGT,-0.0117
10,TAAAGACA,0.109
11,CCACCAAC,0.0331
12,CAGGCTGA,-0.233
13,CGCCTCTC,-0.34
14,GAATGCTC,-0.0816
15,ACTTTTCT,0.099
16,ATGCTGCA,-0.0493
17,GCCCCCCA,-0.427
18,GATTGGCC,-0.145
19,AAACAGTT,-0.0243
20,CACACAAC,-0.00829
21,ACTGCCGA,0.0404
22,GCTACAGC,0.0268

# Part of the list above, tab-delimited.
row	Sequence	PBM E-score
4	ATACGTAG	0.0583
7	TCGCTACA	-0.242
13	CGCCTCTC	-0.34
16	ATGCTGCA	-0.0493
19	AAACAGTT	-0.0243
